The other results are listed elsewhere or left out. Small differences around the control level are noise.

By UniProt entry, the sequences of proteins in these tests, tags left out. Where a name states a change or a piece, a line headed by the entry shows the natural chain unless it says otherwise.
UniProt Q5HZG4, whole entry: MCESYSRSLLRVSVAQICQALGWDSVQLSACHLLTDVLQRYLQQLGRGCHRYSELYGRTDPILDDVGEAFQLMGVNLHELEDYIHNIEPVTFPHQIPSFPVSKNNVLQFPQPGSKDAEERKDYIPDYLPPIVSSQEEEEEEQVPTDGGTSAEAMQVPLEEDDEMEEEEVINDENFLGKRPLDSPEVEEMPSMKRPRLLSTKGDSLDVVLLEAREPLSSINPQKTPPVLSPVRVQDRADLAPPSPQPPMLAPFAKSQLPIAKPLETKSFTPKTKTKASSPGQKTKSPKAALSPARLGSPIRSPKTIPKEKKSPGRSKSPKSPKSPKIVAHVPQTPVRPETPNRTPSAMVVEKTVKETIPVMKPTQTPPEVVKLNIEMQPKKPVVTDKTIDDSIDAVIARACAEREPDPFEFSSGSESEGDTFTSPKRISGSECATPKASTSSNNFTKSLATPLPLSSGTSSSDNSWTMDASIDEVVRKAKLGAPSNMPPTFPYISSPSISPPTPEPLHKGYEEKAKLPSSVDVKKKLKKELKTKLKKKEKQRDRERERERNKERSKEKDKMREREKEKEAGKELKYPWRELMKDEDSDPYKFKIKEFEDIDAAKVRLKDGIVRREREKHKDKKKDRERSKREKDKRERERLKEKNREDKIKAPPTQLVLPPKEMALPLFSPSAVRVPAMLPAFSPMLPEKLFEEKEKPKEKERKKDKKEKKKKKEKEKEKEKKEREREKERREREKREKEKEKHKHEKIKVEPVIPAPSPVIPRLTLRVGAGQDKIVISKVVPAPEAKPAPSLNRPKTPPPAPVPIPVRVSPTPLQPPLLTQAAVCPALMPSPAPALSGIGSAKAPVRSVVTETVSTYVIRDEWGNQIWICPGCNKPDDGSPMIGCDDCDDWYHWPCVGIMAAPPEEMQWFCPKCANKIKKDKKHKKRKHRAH
UniProt Q5U5M8: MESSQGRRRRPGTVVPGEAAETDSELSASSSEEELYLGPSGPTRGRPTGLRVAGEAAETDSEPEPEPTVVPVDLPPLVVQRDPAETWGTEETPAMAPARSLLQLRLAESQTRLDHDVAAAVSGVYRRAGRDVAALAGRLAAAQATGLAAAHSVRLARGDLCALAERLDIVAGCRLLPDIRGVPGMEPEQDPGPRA
UniProt Q5RL51: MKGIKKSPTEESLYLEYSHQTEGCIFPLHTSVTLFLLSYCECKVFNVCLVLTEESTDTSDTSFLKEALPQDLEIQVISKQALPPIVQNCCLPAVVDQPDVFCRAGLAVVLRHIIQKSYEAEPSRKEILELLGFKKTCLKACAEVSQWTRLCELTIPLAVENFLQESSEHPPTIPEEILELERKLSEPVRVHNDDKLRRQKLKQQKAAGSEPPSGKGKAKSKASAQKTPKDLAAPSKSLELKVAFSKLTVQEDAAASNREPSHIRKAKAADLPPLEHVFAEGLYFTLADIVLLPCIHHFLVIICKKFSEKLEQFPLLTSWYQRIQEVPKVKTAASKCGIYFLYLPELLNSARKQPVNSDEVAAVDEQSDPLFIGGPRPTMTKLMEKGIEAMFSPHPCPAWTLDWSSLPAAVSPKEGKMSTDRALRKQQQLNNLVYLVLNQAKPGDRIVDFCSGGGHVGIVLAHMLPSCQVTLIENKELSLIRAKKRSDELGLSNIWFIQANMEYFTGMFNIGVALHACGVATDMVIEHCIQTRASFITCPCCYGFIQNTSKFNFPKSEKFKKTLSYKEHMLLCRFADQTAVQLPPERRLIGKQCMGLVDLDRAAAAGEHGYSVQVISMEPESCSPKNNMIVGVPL
UniProt Q5SV85: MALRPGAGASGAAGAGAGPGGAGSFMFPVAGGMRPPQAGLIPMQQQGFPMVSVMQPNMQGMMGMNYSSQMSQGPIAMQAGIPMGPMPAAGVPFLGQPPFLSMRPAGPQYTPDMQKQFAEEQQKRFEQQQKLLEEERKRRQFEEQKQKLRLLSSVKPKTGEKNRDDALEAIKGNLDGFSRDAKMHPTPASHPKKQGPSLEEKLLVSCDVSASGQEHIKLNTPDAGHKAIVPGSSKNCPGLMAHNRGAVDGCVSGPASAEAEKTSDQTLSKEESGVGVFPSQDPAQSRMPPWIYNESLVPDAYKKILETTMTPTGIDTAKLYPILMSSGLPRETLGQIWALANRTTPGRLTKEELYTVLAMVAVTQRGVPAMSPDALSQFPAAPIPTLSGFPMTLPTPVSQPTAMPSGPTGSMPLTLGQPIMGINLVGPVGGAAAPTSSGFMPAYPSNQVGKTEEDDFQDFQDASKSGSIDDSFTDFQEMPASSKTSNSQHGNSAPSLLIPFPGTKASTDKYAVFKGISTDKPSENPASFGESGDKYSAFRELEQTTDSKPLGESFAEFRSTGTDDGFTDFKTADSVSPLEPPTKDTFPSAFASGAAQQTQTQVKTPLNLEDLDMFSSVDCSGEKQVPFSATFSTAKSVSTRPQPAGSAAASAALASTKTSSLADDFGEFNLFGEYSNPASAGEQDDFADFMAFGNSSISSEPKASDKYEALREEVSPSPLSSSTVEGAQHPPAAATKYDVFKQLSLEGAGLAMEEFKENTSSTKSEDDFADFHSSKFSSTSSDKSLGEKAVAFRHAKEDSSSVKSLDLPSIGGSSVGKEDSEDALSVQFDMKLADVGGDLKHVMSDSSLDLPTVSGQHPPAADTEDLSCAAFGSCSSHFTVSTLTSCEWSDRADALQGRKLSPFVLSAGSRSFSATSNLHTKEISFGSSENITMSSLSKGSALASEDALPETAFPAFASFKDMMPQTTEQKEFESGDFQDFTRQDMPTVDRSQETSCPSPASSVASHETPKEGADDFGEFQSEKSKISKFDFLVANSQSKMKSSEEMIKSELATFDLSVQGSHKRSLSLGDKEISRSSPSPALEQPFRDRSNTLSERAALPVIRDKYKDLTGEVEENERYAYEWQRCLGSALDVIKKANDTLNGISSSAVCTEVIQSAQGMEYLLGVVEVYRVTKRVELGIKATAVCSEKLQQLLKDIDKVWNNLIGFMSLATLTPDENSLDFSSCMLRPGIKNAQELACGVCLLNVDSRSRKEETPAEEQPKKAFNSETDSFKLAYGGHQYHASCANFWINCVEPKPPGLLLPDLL
UniProt Q61103, whole entry: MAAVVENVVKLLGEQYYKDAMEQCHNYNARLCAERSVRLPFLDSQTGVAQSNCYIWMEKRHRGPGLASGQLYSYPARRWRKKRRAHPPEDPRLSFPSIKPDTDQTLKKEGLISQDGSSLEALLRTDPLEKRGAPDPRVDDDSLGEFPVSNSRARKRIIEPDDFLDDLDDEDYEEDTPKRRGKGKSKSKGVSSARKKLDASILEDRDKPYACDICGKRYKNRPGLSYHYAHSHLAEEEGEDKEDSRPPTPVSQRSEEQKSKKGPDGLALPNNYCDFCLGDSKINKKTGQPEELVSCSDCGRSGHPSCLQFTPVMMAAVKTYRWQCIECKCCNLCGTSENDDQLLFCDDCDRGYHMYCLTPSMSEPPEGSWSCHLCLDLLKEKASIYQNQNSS
UniProt Q61084: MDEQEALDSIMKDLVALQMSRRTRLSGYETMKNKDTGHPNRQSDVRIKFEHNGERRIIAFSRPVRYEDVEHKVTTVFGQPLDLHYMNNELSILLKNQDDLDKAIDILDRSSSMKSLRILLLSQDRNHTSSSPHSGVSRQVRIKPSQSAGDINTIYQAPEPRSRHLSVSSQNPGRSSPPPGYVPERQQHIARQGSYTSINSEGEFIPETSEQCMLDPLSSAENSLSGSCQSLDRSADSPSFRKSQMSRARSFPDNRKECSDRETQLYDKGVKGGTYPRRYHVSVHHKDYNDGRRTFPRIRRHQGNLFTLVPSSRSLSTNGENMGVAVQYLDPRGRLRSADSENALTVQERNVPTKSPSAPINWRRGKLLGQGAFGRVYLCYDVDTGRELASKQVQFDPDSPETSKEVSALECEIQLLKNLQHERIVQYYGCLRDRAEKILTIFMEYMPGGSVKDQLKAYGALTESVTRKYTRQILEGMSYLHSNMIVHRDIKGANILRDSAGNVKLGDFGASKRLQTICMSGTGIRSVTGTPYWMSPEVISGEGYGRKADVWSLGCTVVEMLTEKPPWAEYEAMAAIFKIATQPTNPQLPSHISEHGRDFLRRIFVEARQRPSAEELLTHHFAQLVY
UniProt Q5FW60: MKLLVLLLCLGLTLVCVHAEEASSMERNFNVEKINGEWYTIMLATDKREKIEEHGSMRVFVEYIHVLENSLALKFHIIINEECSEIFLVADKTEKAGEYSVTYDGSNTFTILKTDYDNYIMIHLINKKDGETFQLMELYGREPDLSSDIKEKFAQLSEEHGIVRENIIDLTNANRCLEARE
UniProt Q5ND34: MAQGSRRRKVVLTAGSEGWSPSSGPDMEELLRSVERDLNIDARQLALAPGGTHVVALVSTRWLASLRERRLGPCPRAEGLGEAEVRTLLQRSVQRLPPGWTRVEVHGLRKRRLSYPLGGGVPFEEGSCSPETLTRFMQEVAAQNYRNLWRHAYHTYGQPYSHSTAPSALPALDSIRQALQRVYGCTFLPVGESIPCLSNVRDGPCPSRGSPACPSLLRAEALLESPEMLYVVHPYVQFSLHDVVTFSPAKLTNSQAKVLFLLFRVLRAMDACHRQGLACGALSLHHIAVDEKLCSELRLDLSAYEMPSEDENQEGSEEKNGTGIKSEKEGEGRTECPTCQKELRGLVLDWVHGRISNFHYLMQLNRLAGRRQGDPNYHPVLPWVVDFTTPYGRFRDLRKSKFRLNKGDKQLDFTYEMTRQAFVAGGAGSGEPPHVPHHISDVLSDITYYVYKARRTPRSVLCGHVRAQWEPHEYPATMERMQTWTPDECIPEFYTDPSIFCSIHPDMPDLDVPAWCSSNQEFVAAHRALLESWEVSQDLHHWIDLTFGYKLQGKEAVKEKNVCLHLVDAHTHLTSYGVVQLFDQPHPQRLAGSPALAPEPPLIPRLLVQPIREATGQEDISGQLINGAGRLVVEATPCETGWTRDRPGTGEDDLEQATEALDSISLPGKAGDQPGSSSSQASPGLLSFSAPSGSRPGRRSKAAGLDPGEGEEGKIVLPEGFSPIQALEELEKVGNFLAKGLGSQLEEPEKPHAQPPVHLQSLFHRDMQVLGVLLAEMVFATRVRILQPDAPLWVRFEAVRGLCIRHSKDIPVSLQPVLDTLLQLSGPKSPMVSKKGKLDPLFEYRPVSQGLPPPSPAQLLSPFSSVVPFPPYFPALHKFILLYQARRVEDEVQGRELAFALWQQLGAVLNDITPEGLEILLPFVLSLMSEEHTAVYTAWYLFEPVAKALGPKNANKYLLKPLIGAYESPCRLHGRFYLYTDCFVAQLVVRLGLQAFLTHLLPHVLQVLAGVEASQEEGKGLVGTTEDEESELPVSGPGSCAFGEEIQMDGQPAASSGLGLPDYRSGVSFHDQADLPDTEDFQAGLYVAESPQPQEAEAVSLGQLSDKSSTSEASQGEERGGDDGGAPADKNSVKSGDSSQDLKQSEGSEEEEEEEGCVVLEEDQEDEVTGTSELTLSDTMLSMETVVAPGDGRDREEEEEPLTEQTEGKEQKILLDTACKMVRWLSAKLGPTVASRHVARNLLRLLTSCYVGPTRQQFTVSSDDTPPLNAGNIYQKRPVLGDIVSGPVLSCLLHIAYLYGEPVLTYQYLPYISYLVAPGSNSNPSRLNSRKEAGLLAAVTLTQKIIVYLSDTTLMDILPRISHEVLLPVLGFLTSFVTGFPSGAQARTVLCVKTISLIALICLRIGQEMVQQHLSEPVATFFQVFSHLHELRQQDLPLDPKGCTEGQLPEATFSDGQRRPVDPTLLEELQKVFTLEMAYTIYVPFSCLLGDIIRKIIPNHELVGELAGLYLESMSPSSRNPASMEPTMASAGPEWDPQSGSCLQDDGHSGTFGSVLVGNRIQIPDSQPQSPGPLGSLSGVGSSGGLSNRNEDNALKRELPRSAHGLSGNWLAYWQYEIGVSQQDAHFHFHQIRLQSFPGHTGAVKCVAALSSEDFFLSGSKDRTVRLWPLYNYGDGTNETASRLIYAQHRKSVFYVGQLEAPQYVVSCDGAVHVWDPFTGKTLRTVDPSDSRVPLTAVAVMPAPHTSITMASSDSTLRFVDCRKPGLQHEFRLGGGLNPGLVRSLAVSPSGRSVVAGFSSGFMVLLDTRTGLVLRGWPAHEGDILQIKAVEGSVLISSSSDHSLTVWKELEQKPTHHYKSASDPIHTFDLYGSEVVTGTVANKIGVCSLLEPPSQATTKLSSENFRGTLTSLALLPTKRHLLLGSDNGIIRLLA
UniProt Q60931: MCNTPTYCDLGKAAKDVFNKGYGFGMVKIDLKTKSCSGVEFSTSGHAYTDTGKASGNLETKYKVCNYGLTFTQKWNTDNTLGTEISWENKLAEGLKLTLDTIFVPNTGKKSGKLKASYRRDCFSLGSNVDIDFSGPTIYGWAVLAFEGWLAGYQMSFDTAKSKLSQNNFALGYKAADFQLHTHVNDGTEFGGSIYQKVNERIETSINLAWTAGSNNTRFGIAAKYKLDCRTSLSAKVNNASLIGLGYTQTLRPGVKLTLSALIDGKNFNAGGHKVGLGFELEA

Compound in the experiment: CN[C@@H]1C[C@H]2O[C@@](C)([C@@H]1OC)n1c3ccccc3c3c4c(c5c6ccccc6n2c5c31)C(=O)NC4 [staurosporine]
In words: log2 fold change of tryptic peptide abundance, ligand vs vehicle (limited proteolysis) (log2 ratio); higher = more trypsin-susceptible (destabilized). The settings on record: ligand concentration: 20 uM; sample: mouse liver crude lysate; replicate design: treated separately.
As to “UniProt Q60991 (peptide sequence: KLLTDDDLNEDVHR, peptide start residue: 125)”, the log2 fold change is -0.158.
As for “UniProt Q61069 (peptide sequence: ACDYIQELR, peptide start residue: 247)”, the log2 fold change was 0.149.
Regarding “UniProt Q61112 (peptide sequence: AVDPDGDGHVSWDEYK, peptide start residue: 147)”, the log2 fold change was -0.0788.
With “UniProt Q5XKN4 (peptide sequence: AAGTDGSDFQHR, peptide start residue: 9)” the figure was 0.0713; with “UniProt Q61024 (peptide sequence: ADWLTHYWMPK, peptide start residue: 530)”, -0.657; with “UniProt Q5HZG4 (peptide sequence: TPSAMVVEK, peptide start residue: 343)”, -0.307.
On to “UniProt Q5SWU9 (peptide sequence: TFEDFVR, peptide start residue: 1240)”, for which the log2 fold change is -0.229.
The value for “UniProt Q5HZI1 (peptide sequence: LEPAEVKK, peptide start residue: 435)” was -0.201.
The value for “UniProt Q61153 (peptide sequence: LYVIQEGR, peptide start residue: 216)” was -0.0823; that for “UniProt Q5U5M8 (peptide sequence: GDLCALAER, peptide start residue: 158)” was -0.346; that for “UniProt Q5RL51 (peptide sequence: EILELLGFKK, peptide start residue: 126)” was 0.291.
The value for “UniProt Q60575 (peptide sequence: SETYVNGKR, peptide start residue: 603)” was 0.773; that for “UniProt Q5SV85 (peptide sequence: KEETPAEEQPKK, peptide start residue: 1252)” was -0.715; that for “UniProt Q60698 (peptide sequence: TCHWGFDSANWR, peptide start residue: 269)” was -0.175.
Consider “UniProt Q60989 (peptide sequence: DISTEEQLRR, peptide start residue: 433)”, for which the log2 fold change amounted to 0.412.
On to “UniProt Q61103 (peptide sequence: DKPYACDICGK, peptide start residue: 206)”, for which the log2 fold change worked out at 0.466.
The value for “UniProt Q5U405 (peptide sequence: NKPGVYTK, peptide start residue: 515)” was -0.0357; that for “UniProt Q5SX79 (peptide sequence: KDYSTQELQR, peptide start residue: 245)” was -0.336.
In the case of “UniProt Q5XJY4 (peptide sequence: VQSYFDGIK, peptide start residue: 126)”, the log2 fold change came to 0.223.
With “UniProt Q61176 (peptide sequence: SLEIIGAPFSK, peptide start residue: 7)” the figure was -0.075; with “UniProt Q61189 (peptide sequence: GLGTGTLYIAESR, peptide start residue: 31)”, -0.72; with “UniProt Q61084 (peptide sequence: YHVSVHHK, peptide start residue: 279)”, 0.953.
As for “UniProt Q5FW60 (peptide sequence: INGEWYTIMLATDKR, peptide start residue: 34)”, the log2 fold change worked out at 0.043.
With “UniProt Q60692 (peptide sequence: VTDKLTPIHDHIFCCR, peptide start residue: 63)” the figure was 0.162; with “UniProt Q5ND34 (peptide sequence: DREEEEEPLTEQTEGK, peptide start residue: 1194)”, -0.861; with “UniProt Q5RKZ7 (peptide sequence: QHAGMFNIAQMK, peptide start residue: 365)”, -0.115.
The value for “UniProt Q61169 (peptide sequence: DGTGHYLCNACGLYSK, peptide start residue: 398)” was -0.479; that for “UniProt Q60960 (peptide sequence: REEEGLQLR, peptide start residue: 28)” was -0.492; that for “UniProt Q61133 (peptide sequence: VLGPLIGVQVPQEKVER, peptide start residue: 118)” was 0.139.
With “UniProt Q5EBG8 (peptide sequence: DADLHHAACNMVK, peptide start residue: 102)”, the log2 fold change was 0.123.
The value for “UniProt Q60931 (peptide sequence: LTLDTIFVPNTGKK, peptide start residue: 97)” was -0.838.

(Values after the supplement of paper PMC12819154, “High-throughput peptide-centric local stability assay extends protein–ligand identification to membrane proteins, tissues and bacteria” (Nature Structural & Molecular Biology, 2025).)
